Laboratory results taken from PMC11063955, “A multiplexed time-resolved fluorescence resonance energy transfer ultrahigh-throughput screening assay for targeting the SMAD4–SMAD3–DNA complex” (Journal of Molecular Cell Biology, 2023).

System: His-SMAD4 + Flag-SMAD3
Assay: TR-FRET (Tb-FAM PDI)
Conditions: cell lysate co-expressing both proteins; Pre-diluted cell lysate, 30 ul in 384-well plate, anti-FLAG M2-Tb 1:1000, anti-6xHis-D2 1:500, FAM oligo serially diluted 2-fold from 500 nM stock, 4 C 30 min; protein in a lysate after overexpression; protein details: 6xHis,Flag; label: 5'-FAM on strand 1 (3'-FAM version also listed)

Sequence: CGCGTAAGAGCTCGGTACGTCTAGACTGCCGTCTAGACTTAGTACGTCTAGACTGCCGTCTAGACTTAGTACCTATCGATAGC (double strand) [FAM-SBE4]
- binding result: binds

The exact form of at least one protein or probe is not confirmed. Where cells or extracts were used, other partners may take part. At least one verdict rests on a figure or table, not on a statement of the authors.
